Source: PubChem BioAssay AID504444 (National Center for Advancing Translational Sciences (NCATS), 2011)
Hit rate of the full screen: of about 360,000 compounds, about 7,500 (2.1%) were called active. Inconclusive means that the source gave no clear call. Such entries were picked first, then a sample of the others. The call rests on the fitted dose curve; in most records, active means well fitted inhibition curve with a large enough effect; inconclusive means small, poorly fitted or top-dose-only effect, or effect the other way; inactive means flat fitted curve, though single readings scatter. Potencies of inconclusive entries are doubtful fits and often do not repeat.

test: Nrf2 qHTS screen for inhibitors; settings: A549 ARE-Fluc reporter, luciferase luminescence, 18-24 h; activity change, negative = inhibition: at 46 µM (top of the series); further: nearly all actives have a fitted effect of over 60% in size
Outline: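 A549 ARE_Fluc cells, 5000/well, 5% FBS OPTI-MEM; compounds in dose-response, 18-24 h at 37 °C/5% CO2; CellTiter-Fluor viability read (Ex 405/Em 525), then BugLite luciferase luminescence = Nrf2 activity.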
On the % scale 0 is the no-effect control and ±100 the full control effect; potency means the concentration at half of the fitted maximal effect.

Row | Structure (SMILES) | Potency | activity change, negative = inhibition
1 | COc1cc([C@@H]2C[C@H]3CN(c4ccccc4)C(=O)[C@]34CCCN24)cc(OC)c1OC | inconclusive: 11.6 µM [falling, partial curve, poor fit] | –
2 | N#Cc1ccccc1CSc1nc2ccc(NC(=O)c3ccccc3C(=O)O)cc2s1 | inconclusive: 7.31 µM [activator, partial curve] | –
3 | Brc1ccc(COc2cccc3cccnc23)cc1 | inconclusive: 20.6 µM [activator, partial curve] | –
4 | Cc1cnc(C(=O)OCC(=O)Nc2sc3c(c2C(N)=O)CCCC3)cn1 | inconclusive: 20.6 µM [falling, single point] | –
5 | O=C(Nc1ccc(F)cc1)c1sc2cc(C(F)(F)F)cnc2c1-c1cccs1 | inconclusive: 23.1 µM [falling, partial curve] | –
6 | Nc1c(C(=O)N/N=C/c2ccccc2Cl)oc2nc(-c3ccccc3)cc(-c3ccco3)c12 | inconclusive: 0.411 µM [falling, partial curve, poor fit] | –
7 | COCCCn1c(SCC(=O)Nc2nc3ccccc3s2)nnc1-c1ccoc1C | inconclusive: 25.9 µM [falling, partial curve, poor fit] | –
8 | O=C(OCC(=O)N1CCOCC1)c1ccc2c(c1)OCCO2 | – | inactive: 23.5%
9 | Nc1nc(-c2ccc(-c3ccccc3)cc2)cs1 | inconclusive: 5.17 µM [activator, partial curve] | –
10 | COc1cccc(C(=O)CN(C(=O)c2ccc(Cl)c(Cl)c2)N2C(=O)C3CCCCC3C2=O)c1 (stereo unspecified) | – | inactive: 10.6%
11 | CN(CCc1ccccc1)C(=O)c1cccc(NC(=O)Cc2cccc(NC(=O)C3CCCN(S(=O)(=O)c4cccc([N+](=O)[O-])c4)C3)c2)c1 (stereo unspecified) | inconclusive: 7.31 µM [falling, partial curve] | –
12 | CCc1cc(C(=O)NC2CCCN(Cc3ccccc3F)C2)n(C)n1 (stereo unspecified) | active: 13 µM | –
13 | C/C(=N\Nc1ccc(Cl)c(C(=O)O)c1)c1ccc[nH]1 | inconclusive: 14.6 µM [activator, partial curve, poor fit] | –
14 | CC(=O)Nc1ccc2c(c1)C(=O)N(c1ccc(C)cc1)C2=O | inconclusive: 9.2 µM [activator, partial curve] | –
15 | COc1ccc(NC(=S)N2CCC(C(=O)c3ccc(F)cc3)CC2)cc1 | inconclusive: 9.2 µM [falling, partial curve, poor fit] | –
16 | Cn1cccc1C(=O)NNC(=O)COc1ccccc1F | inconclusive: 10.3 µM [activator, partial curve, poor fit] | –
17 | Cc1ccccc1Nc1nc(-c2cccnc2)nc2ccccc12 | – | inactive: -14.7%
18 | Cc1ccc(S(=O)(=O)N2C[C@@H]3[C@H]4CC[C@H](C4)[C@@H]3[C@@H](C)[C@@H]2c2ccn(Cc3ccccc3)c2)cc1 | inconclusive: 29.1 µM [falling, single point] | –
19 | CCc1nnc(NC(=O)CC23CC4CC(CC(Br)(C4)C2)C3)s1 | inconclusive: 16.4 µM [falling, single point] | –
20 | O=C(C1CCC1)N1CCc2cc(S(=O)(=O)NCC3COc4ccccc4O3)ccc21 (stereo unspecified) | inconclusive: 29.1 µM [falling, single point] | –
21 | Cc1cc(C)cc(NS(=O)(=O)c2ccc3c(c2)c(=O)n(C)c(=O)n3C)c1 | active: 8.2 µM | –

Row | Structure (SMILES) | Potency | activity change, negative = inhibition
22 | Cc1ccc(C)c(-c2csc(Nc3ncccn3)n2)c1 | – | inactive: 1.73%
23 | CC1(C)CC2(C)OC(=N)C1(C#N)C2(C#N)C#N (stereo unspecified) | inconclusive: 20.6 µM [falling, single point] | –
24 | CC(C)(C)c1nn2cnnc2n(/N=C/c2ccc(O)cc2)c1=O | – | inactive: 1.87%
25 | CC1CCC2(CC1)N=C(N)Nc1nc3ccccc3n12 (stereo unspecified) | inconclusive: 0.291 µM [falling, full curve, poor fit] | –
26 | Cc1cc(C)n(-c2nc3ccccc3nc2Nc2cccc(C)c2C)n1 | inconclusive: 2.91 µM [activator, partial curve] | –
27 | CCOC(=O)CSC1=C(C#N)C(c2ccccc2OCC)C(C(=O)OCC)C(=O)N1 (stereo unspecified) | – | inactive: -1.36%
28 | COc1ccc(C(=O)Nc2cccc(N(C)S(C)(=O)=O)c2)cc1OC | inconclusive: 5.8 µM [activator, full curve] | –
29 | O=C(Nc1ccc(OC(F)(F)F)cc1)c1cc2ccccn2n1 | inconclusive: 4.61 µM [falling, single point] | –
30 | O=c1nc2n(-c3ccccc3F)c3ccccc3cc-2c(=O)[nH]1 | inconclusive: 25.9 µM [falling, single point] | –
31 | CC1(C)CC(=O)C(C=Nc2ccc3c(c2)OCO3)=C(O)C1 | inconclusive: 2.91 µM [activator, single point] | –
32 | CCCCn1cc2c(c1-c1ccc(Cl)cc1)c(=O)n(C)c(=O)n2C | inconclusive: 29.1 µM [falling, single point] | –
33 | O=C(O)C(c1ccccc1)N1C(=O)/C(=C\c2ccc(O)c(O)c2)SC1=S (stereo unspecified) | inconclusive: 10.3 µM [falling, partial curve, poor fit] | –
34 | CSc1cccc(NC(=O)CCn2c(=O)c3cccn3c3cccnc32)c1 | inconclusive: 23.1 µM [falling, partial curve, poor fit] | –
35 | CCC(CC)NC(=O)c1cc2c(C)nn(Cc3ccccc3Cl)c2s1 | – | inactive: -15.3%
36 | CS(=O)(=O)N(CC(O)Cn1c2ccccc2c2ccccc21)c1cccc2ccccc12 (stereo unspecified) | inconclusive: 29.1 µM [falling, single point] | –
37 | CC(C)c1ccc(O)c(NC(=O)c2ncn[nH]2)c1 | inconclusive: 18.4 µM [activator, partial curve, poor fit] | –
38 | Cc1c(C(=O)N2CCN(c3ccc(F)cc3)CC2)oc2c1C(=O)CCC2 | inconclusive: 3.26 µM [falling, single point] | –
39 | Cc1cc(=O)oc2cc(OCC(=O)NCc3ccncc3)ccc12 | – | inactive: -11.3%
40 | Cc1ccc(-n2ncc(C(=O)NCc3ccco3)c2C2CCN(C(=O)OC(C)(C)C)CC2)c(C)c1 | inconclusive: 20.6 µM [falling, partial curve, poor fit] | –
41 | COc1ccc(S(=O)(=O)n2ccc(-c3cnc(-c4ccccc4)s3)n2)cc1 | inconclusive: 16.4 µM [falling, single point] | –

Full records, looked up by structure. Order of values: Potency | activity change, negative = inhibition
CCC(CC)NC(=O)c1cc2c(C)nn(Cc3ccccc3Cl)c2s1 in the list: – | inactive: -15.3%
O=C(C1CCC1)N1CCc2cc(S(=O)(=O)NCC3COc4ccccc4O3)ccc21 (stereo unspecified) in the list: inconclusive: 29.1 µM [falling, single point] | –
